The record followed here is patent publication US20080287445A1, “Prokineticin 2 receptor antagonists” (priority 2005, published 2008).

Protein sequences, listed by entry. Tags and fused reporters are not part of them.
UniProt Q8TCW9, whole entry: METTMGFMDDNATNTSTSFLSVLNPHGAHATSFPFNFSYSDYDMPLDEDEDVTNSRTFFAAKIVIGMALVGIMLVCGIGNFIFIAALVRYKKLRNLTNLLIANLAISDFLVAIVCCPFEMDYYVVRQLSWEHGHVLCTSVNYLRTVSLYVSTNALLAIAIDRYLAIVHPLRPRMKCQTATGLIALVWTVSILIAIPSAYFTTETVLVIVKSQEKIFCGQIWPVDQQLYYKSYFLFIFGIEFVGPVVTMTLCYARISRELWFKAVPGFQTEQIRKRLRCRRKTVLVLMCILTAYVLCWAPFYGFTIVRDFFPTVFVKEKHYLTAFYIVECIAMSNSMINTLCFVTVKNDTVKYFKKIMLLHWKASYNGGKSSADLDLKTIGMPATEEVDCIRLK

The target of the assay is GPR73 (prokineticin 1 receptor) (Homo sapiens, UniProt Q8TCW9). Nature of the assay: PK1 functional assay: Ca2+ mobilization screening for PK1 antagonists on the FLIPR. The conditions noted are these: HEK 293 GPR73 cells, multiple values = multiple testing. As for the experimental part: At a time of 24 h prior to running the assay, in cell culture media (DMEM containing high Glucose and L-glutamine, 10% FBS, 1% Pen/Streptomycin, 1% Sodium Pyruvate, 20 mM HEPES, Zeocin 200 mg/L), 100 μL of 1.3*10^6/ml HEK 293 GPR73 (prokineticin 1 receptor) expressing cells were plated in a 96 well poly-d-lysine coated plate (Costar), and incubated at 37 C and 5% CO2. On the day in which the assay was run, the media was removed and 200 μL of 5× Calcium Plus Dye (Molecular Devices) which was previously resuspended with 200 mL of assay buffer [HBSS w/Ca^2+ and Mg^2+ w/o phenol red, 20 mM HEPES, 0.1% BSA, 10 mL probenecid (710 mg probenecid in 5 mL of 1N NaOH, to which was then added 5 mL HBSS containing 20 mM HEPES)] was added to each well of the 96-well plate. The plate was incubated at 37 C and 5% CO2 for 30 min in dark. The plate was removed and allowed to reach RT for 15 min in the dark. The assay was then run on the FLIPR. In Brief: base line read for 1 min, compound added (25 μL) and incubated for 4 min, 15 seconds, PK1 ligand preparation added (25 μL) for a final concentration of a previously determined EC50 and fluorescence was counted for 1 min, 45 seconds. Baseline is described as the amount of relative fluorescence read when buffer alone is added to cells. Baseline was subtracted from all wells. Percent of control was calculated as follows: […]
In general terms: Calcium flux is commonly read through the fluorescence of an indicator in the cells.

SMILES strings stand for the structures. The structures given here were assigned with low confidence; some may be wrong. A value given as a limit tells only on which side of the number the result lay.

With `COc1ccc(Cn2c(=O)nc(NCc3cnc(C)cc3C)n(Cc3ccncc3)c2=O)cc1` [Cpd 101], the “Ca^2+ Mobilization % Inh @ 10 μM” value (10 μM compound) is 42%. The IC50 (usually the concentration that gives 50% inhibition) (read-out: Ca^2+ Mobilization IC50, PK1 ligand preparation at its EC50) was > 10 µM.
